Laboratory results as given in US6436636B1, “Methods for identifying pharmacologicals for the treatment of heart failure” (Wake Forest University, priority 1995, dated 2002).
Construct, isoform or probe ends are uncertain for at least one entry. At least one result comes from cells or an extract, where the contact may be indirect.

System: beta-ARB (Mr 38,000 protein in ribosomal salt wash of DDT1-MF2 cells)
Test: binding assay
Conditions: 5'-cap; UV-crosslinking, 22 C, yeast tRNA and heparin; self-competed at 10-50-fold excess; protein in an extract; label: 32P-UTP uniform

**Q.** Does “AGGGCCCGGCGCGGGGCGCGGACCCGGGCACGGCCCCAGGGGAACGAGGAGACGGACAAGACCGAAGCAGGGAACCGAAGCCCACAACCCGCGAACACCGAGGCAAAGAGAAAAGCCACGGACCGGCACAAAAAGGAAAGGGGAAGGGAGGGAGAGGGCGCGAGCCGGCCCCCCCGGGGCCGGCCCGGGGCGGGAGCACAGACCCCCACCAGGGGGCACACCCGAGAGGACCGGAGGGAAGAGGGGGGAGGGGAAGGGAGAAGCAAGGGAGGCAAAAACGACACGCCGACCCACCCCCCGGGAACAGGAACACACACCGACCAGAGAGAGGAGAAGACAGGCAAGACAACCGCCCAGAGAAACAAACAAGAAGACGCGAGAAAGCAAAGAGAAAGGAGGAGGCAAAAAAAAAAAAACACGCAAGAAAGAAGCCCGGAACAAGCCCCACCGCCCGGAGGGCAAACCCGCGCCCCCGCGCGCCGGGGGCAGGCGAGGGACACCCACACGGCAGCACAGCAGAAGAAAGACGAAAAACAGCAAGACAAAAGGGAAGGACCAGGCGCAGAGCCCCCGGACAGGACCGCAAGAAGACAGGACAAAAAGAGAGCAGAGAGAGAGAAACAGCAGAACGCACAGGGAAAAAACAAAAAAGACAAGCAGCGACAGAG [human beta1-AR 3'UTR RNA]” bind?
**A.** Result: binds
